We go through 48 compounds from the supplement of paper PMC7024190.

SMILES strings stand for the structures. Where a name gives a salt, the structure may show the parent alone. This is one part of the list. This data set is noisy: repeats of one test often differ as much as different tests do.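 The cells were human embryonic kidney cells carrying a Renilla luciferase gene, driven by the HSV-TK promoter, on a plasmid put in briefly by transfection. This is the first-round screen of about ten thousand compounds, looking for ones that raise reporter output.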

For the experiment, the system named is HEK 293FT. Briefly: log relative Renilla luciferase luminescence (reporter expression vs reference, reference not stated) (log (base not stated)); higher = higher recombinant reporter expression. The following applies: 10 µM; time after transfection 48 h.
As to `N#C[C@H](O[C@@H]1O[C@H](CO[C@@H]2O[C@H](CO)[C@@H](O)[C@H](O)[C@H]2O)[C@@H](O)[C@H](O)[C@H]1O)c1ccccc1` [amygdalin], the log is 0.0631. Under `CC[C@@H](CO)NC(=O)[C@@H]1C=C2c3cccc4c3c(cn4C)C[C@H]2N(C)C1` [methysergide maleate] stands 0.00491; under `COc1cc2c(c(OC)c1OC)-c1ccc(OC)c(=O)cc1[C@@H](NC(C)=O)CC2` [colchicine], -0.19; under `C[C@]12CC[C@H](O)CC1=CC[C@@H]1[C@@H]2CC[C@]2(C)C(=O)CC[C@@H]12` [prasterone], 0.07. Under `N#Cc1c(Cl)c(Cl)c(Cl)c(C#N)c1Cl` [tetrachloroisophthalonitrile] stands -1.51. With `c1ccc2c(c1)OCC(C1=NCCN1)O2` (stereo not drawn) [idazoxan hydrochloride], the log was determined as 0.12. Under `CC1=C2C(=CO[C@H](C)[C@H]2C)C(O)=C(C(=O)O)C1=O` [citrinin] stands 0.0799; under `CC(C)c1cccc(C(C)C)c1O` [propofol], 0.184. Under `Cc1nccc2c1[nH]c1cc(O)ccc12` [harmol hydrochloride] stands 0.0278; under `N[C@H](CO)Cc1ccccc1` [l-phenylalaninol], 0.0843; under `Cc1[nH]c2ccccc2c1CN(C)C` [2-methyl gramine], 0.142. Turning to `CC(=O)O[C@H]1CC[C@@]2(C)C(=CC[C@@H]3[C@@H]2CC[C@]2(C)C(=O)CC[C@@H]32)C1` [prasterone acetate], the log is 0.0454. For `O=C1C2CC=CCC2C(=O)N1SC(Cl)(Cl)Cl` (stereo not drawn) [captan], the log was -1.45. As for `CN1C[C@H](CNC(=O)OCc2ccccc2)C[C@@H]2c3cccc4c3c(cn4C)C[C@H]21` [metergoline], the log was 0.0525.

For the compound `COC1=CC(=O)O[C@@H](/C=C/c2ccccc2)C1` [kawain], the log was 0.00852. As to `Oc1ccc2c3c1O[C@H]1[C@@H](O)CC[C@@]4(O)[C@@H](C2)N(CC2CCC2)CC[C@]314` [nalbuphine hydrochloride], the log is -0.0615. On to `O=C(O)CC[N+](=O)[O-]` [bovinocidin], for which the log came out at 0.147. With `CN1CCc2cc3c(cc2[C@H]1[C@@H]1OC(=O)c2c1ccc1c2OCO1)OCO3` [bicuculline (+)], the log turned out to be 0.147. Under `C=CCc1ccc(OC)cc1` [estragole] stands -0.0356; under `NCC1(CC(=O)O)CCCCC1` [gabapentin], -0.138; under `COc1cc2ccc(=O)oc2c2ccoc12` [sphondin], 0.0658. Under `O=c1cccc2n1C[C@@H]1CNC[C@H]2C1` [cytisine] stands 0.0489; under `O=C(CCCN1CCC2(CC1)C(=O)NCN2c1ccccc1)c1ccc(F)cc1` [spiperone], 0.3. Under `CC1=CCCC2C1(C)CCC(C)C2(C)CC/C(C)=C/Cn1c[n+](C)c2c(N)ncnc21` (stereo not drawn) [agelasine (stereochemistry of diterpene unknown)] stands 0.0279. In the case of `CC1(C)C(=O)[C@@H]2O[C@@H]2[C@@]2(C)C1C[C@@H](O)[C@]1(C)C2CC[C@@]2(C)[C@H](c3ccoc3)OC(=O)C3OC321` (stereo partly drawn) [1,2alpha-epoxydeacetoxydihydrogedunin], the log is -0.235. Under `CC(N)C(O)c1ccccc1` (stereo not drawn) [phenylpropanolamine hydrochloride] stands 0.152.

With `O=C(O)CF` [sodium fluoroacetate], the log was 0.0145. Under `O=[N+]([O-])O[C@H]1CO[C@H]2[C@@H]1OC[C@H]2O[N+](=O)[O-]` [isosorbide dinitrate] stands 0.0697; under `CC(O)(CS(=O)(=O)c1ccc(F)cc1)C(=O)Nc1ccc(C#N)c(C(F)(F)F)c1` (stereo not drawn) [bicalutamide], -0.0109; under `CCOC(=O)c1cncn1[C@H](C)c1ccccc1` [etomidate], -0.0284. As for `CCC1(C2=NCCN2)Cc2ccccc2O1` (stereo not drawn) [efaroxan hydrochloride], the log amounted to 0.0245. Under `CC[C@@H](CO)NC(=O)[C@@H]1C=C2c3cccc4[nH]cc(c34)C[C@H]2N(C)C1` [methylergonovine maleate] stands -0.0723.

`COc1cc2c(cc1OC)[C@@H]1C(=O)c3ccc4c(c3O[C@@H]1CO2)CC(C(C)C)O4` (stereo partly drawn) [dihydrorotenone]: the log was -1.36. With `CCCCOC(=O)c1ccccc1C(=O)OCCCC` [dibutyl phthalate], the log is -1.53. For the compound `COc1ccc2c(c1OC)C(=O)O[C@@H]2[C@H]1c2cc3c(cc2CCN1C)OCO3` [hydrastine (1r, 9s)], the log is -0.0812. Under `Cc1cc(C(C#N)c2ccc(Cl)cc2)c(Cl)cc1NC(=O)c1cc(I)cc(I)c1O` (stereo not drawn) [closantel] stands -1.22; under `O=C(O)c1nn(Cc2ccc(Cl)cc2Cl)c2ccccc12` [lonidamine], 0.0354; under `C[N+]12CC[C@@]34c5ccccc5N5C(=O)C[C@@H]6OCC=C(C1)[C@H](C[C@@H]32)[C@@H]6[C@H]54` (stereo partly drawn) [strychnine methiodide], 0.0163. Under `C[C@@H]1C[C@@H]([C@H](O)CC2CC(=O)NC(=O)C2)C(=O)[C@@H](C)C1` [cycloheximide] stands -1.35; under `COc1cc2c(cc1O)CCN[C@@H]2C` [salsoline], -0.0232; under `CC(=O)O[C@H]1C(=O)[C@@]2(C)[C@H]([C@H](OC(=O)c3ccccc3)[C@]3(O)C[C@H](O)C(C)=C1C3(C)C)[C@]1(OC(C)=O)CO[C@@H]1C[C@@H]2O` [baccatin iii], 0.0567. Under `CC(C)(C#N)O[C@@H]1O[C@H](CO)[C@@H](O)[C@H](O)[C@H]1O` [linamarin] stands 0.134; under `CC(C)(O)[C@@H]1[C@H]2OC(=O)[C@@H]1[C@]1(O)C[C@H]3O[C@]34C(=O)O[C@H]2[C@]14C` [picrotin], 0.145.

`c1cncc([C@@H]2CCCCN2)c1` [anabasine hydrochloride]: the log was found to be 0.171.

`C=C(C)[C@H]1Cc2c(ccc3c(=O)c4c(oc23)COc2cc(OC)c(OC)cc2-4)O1` [dehydrorotenone]: the log came out at 0.122. Under `CCC(C)C(=O)OC1CC2(C)C(c3ccoc3)OC(=O)CC23OC2(C)OC34C(OC(=O)C(C)C)C3(O)C(OC(=O)C5(C)OC5C)C5(C)CC3(O)C(C)(C5CC(=O)OC)C14O2` (stereo not drawn) [entandrophragmin] stands 0.085. Turning to `C[N+]1(C)CCc2cc3c(cc2[C@H]1[C@@H]1OC(=O)c2c1ccc1c2OCO1)OCO3` [bicuculline(-) methiodide], the log came out at 0.168. Under `C=CCc1cc(OC)c2c(c1OC)OCO2` [apiole] stands 0.0459.
